Earlier results as cited in patent US20100112724A1, “METHOD OF DETERMINATION OF PROTEIN LIGAND BINDING AND OF THE MOST PROBABLE LIGAND POSE IN PROTEIN BINDING SITE” (priority 2007, published 2010).

Test system: protein of the protein-ligand complex (pdb code)
Details: experimentally known binding affinity of test and training protein-ligand complexes selected from PDB, structures described in publications [7, 8, 9]

SMILES	ΔG, kcal/mol (free energy of ligand-protein binding) [kcal/mol]
N=C(N)c1ccc(C[C@@H](NC(=O)CNS(=O)(=O)c2ccc3ccccc3c2)C(=O)N2CCCCC2)cc1 [1ETS]	-11.5
N=C(N)c1ccc(C[C@@H](NC(=O)CNS(=O)(=O)c2ccc3ccccc3c2)C(=O)N2CCCCC2)cc1 [1PPC]	-8.6
